Results deposited as PubChem BioAssay AID1224828 (NIAID, 2016)
Purpose: 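Knock-downs that increase or decrease LPS-induced p65 nuclear translocation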 (primary screen). Cells: mouse RAW264.7 G9 macrophage reporter cells (GFP-p65, Tnf promoter-mCherry). Reagent: siRNA pool against mouse genes, 100 nM. Timing: 2 days siRNA transfection, then 40 min LPS before fixation. Treatment: LPS (Salmonella minnesota R595) at 10 ng/ml. Measurement: 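Imaged p65 nuclear translocation ratio, normalised to the plate median, converted to robust z-scores and averaged across two replicates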. Direction: p65 translocation robust z-score: higher = more nuclear NF-kappaB p65 after LPS than the plate median; nuclear/cytoplasmic p65 ratio: higher = more nuclear NF-kappaB p65. Hit rule: 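Called active when z exceeds 3.3 or falls under -1.56 (median of Tlr4 controls), giving activity score of at least 50; no calls for control wells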. Meaning of the calls: active = hit (p65 shift raised or lowered); inactive = no clear change.
Shown is a random part of about 17,000 deposited reagents. In the full data, 762 (4.5%) got an active call. 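Active calls include both raised and lowered p65 entry, mostly lowered; wells with fewer than 50 cells lack a z-score.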 Raw values are not corrected between plates. Some reagents were tested in more than one well and are listed for each.

gene symbol | p65 translocation robust z-score | nuclear/cytoplasmic p65 ratio, rep 1 | nuclear/cytoplasmic p65 ratio, rep 2 | low cell count flag | activity call
Mbd3l2 (methyl-CpG binding domain protein 3-like 2) | 0.47 | 1.74 | 1.66 | enough cells to score | inactive
Srsf19 (serine and arginine rich splicing factor 19) | – | 1.24 | 1.15 | fewer than 50 cells per well; well left out of scoring | inactive
Igf1r (insulin-like growth factor I receptor) | -0.34 | 2.15 | 1.33 | enough cells to score | inactive
Cep250 (centrosomal protein 250) | 0.94 | 1.54 | 1.5 | enough cells to score | inactive
Saa3 (serum amyloid A 3) | -0.52 | 1.33 | 1.17 | enough cells to score | inactive
Thrsp (thyroid hormone responsive) | -1.6 | 1.29 | 1.29 | enough cells to score | active
Slc35f6 | – | 1.16 | 1.07 | fewer than 50 cells per well; well left out of scoring | inactive
Plcb1 (phospholipase C, beta 1) | 0.18 | 1.43 | 1.24 | enough cells to score | inactive
Elmod3 (ELMO/CED-12 domain containing 3) | -0.11 | 1.63 | 1.56 | enough cells to score | inactive
Bap1 (Brca1 associated protein 1) | -0.59 | 1.53 | 1.52 | enough cells to score | inactive
Fmn1 (formin 1) | -1.23 | 1.39 | 1.43 | enough cells to score | inactive
Xylt1 (xylosyltransferase 1) | 0.79 | 1.47 | 1.39 | enough cells to score | inactive
Pex1 (peroxisomal biogenesis factor 1) | 0.26 | 1.61 | 1.31 | enough cells to score | inactive
Depdc1b (DEP domain containing 1B) | -1.08 | 1.37 | 1.43 | enough cells to score | inactive
Ankrd52 (ankyrin repeat domain 52) | -0.42 | 1.58 | 1.36 | enough cells to score | inactive
Or4c3d (olfactory receptor family 4 subfamily C member 3D) | -0.39 | 1.59 | 1.34 | enough cells to score | inactive
Pdcl (phosducin-like) | 0.52 | 1.59 | 1.49 | enough cells to score | inactive
Spint1 (serine protease inhibitor, Kunitz type 1) | -0.73 | 1.29 | 1.17 | enough cells to score | inactive
Marveld2 (MARVEL (membrane-associating) domain containing 2) | -2.44 | 1.38 | 1.26 | enough cells to score | active
Ccdc166 (coiled-coil domain containing 166) | 0.46 | 1.52 | 1.47 | enough cells to score | inactive
Med14 (mediator complex subunit 14) | -0.14 | 1.48 | 1.22 | enough cells to score | inactive
Slc4a1 | 0.49 | 1.59 | 1.59 | enough cells to score | inactive
Dcun1d1 (defective in cullin neddylation 1 domain containing 1) | 0.74 | 1.56 | 1.68 | enough cells to score | inactive
C4a (complement C4A) | 1.32 | 1.65 | 1.75 | enough cells to score | inactive
Dand5 (DAN domain family member 5, BMP antagonist) | 1.35 | 1.63 | 1.55 | enough cells to score | inactive
Mc5r (melanocortin 5 receptor) | -0.05 | 1.5 | 1.5 | enough cells to score | inactive
Fam89b (family with sequence similarity 89, member B) | 0.92 | 1.58 | 1.45 | enough cells to score | inactive
Arl2bp (ADP-ribosylation factor-like 2 binding protein) | -0.54 | 1.45 | 1.51 | enough cells to score | inactive
Smarcc2 (SWI/SNF related BAF chromatin remodeling complex subunit C2) | -0.52 | 1.54 | 1.53 | enough cells to score | inactive
Gstt2 (glutathione S-transferase, theta 2) | -0.96 | 1.18 | 1.37 | enough cells to score | inactive
Eif2ak3 (eukaryotic translation initiation factor 2 alpha kinase 3) | -0.08 | 1.65 | 1.39 | enough cells to score | inactive
Sdccag8 (serologically defined colon cancer antigen 8) | -0.04 | 1.42 | 1.21 | enough cells to score | inactive
Asb3 (ankyrin repeat and SOCS box-containing 3) | 0.25 | 1.51 | 1.67 | enough cells to score | inactive
Pir (pirin) | -0.28 | 1.51 | 1.63 | enough cells to score | inactive

Looked up above:
Med14 (mediator complex subunit 14), nuclear/cytoplasmic p65 ratio, rep 2: 1.22
Cep250 (centrosomal protein 250), p65 translocation robust z-score: 0.94
Sdccag8 (serologically defined colon cancer antigen 8), activity call → inactive

Further entries:
gene symbol | p65 translocation robust z-score | nuclear/cytoplasmic p65 ratio, rep 1 | nuclear/cytoplasmic p65 ratio, rep 2 | low cell count flag | activity call
Pmpca (peptidase (mitochondrial processing) alpha) | -0.26 | 1.56 | 1.59 | enough cells to score | inactive
Atf6b (activating transcription factor 6 beta) | 0.53 | 1.62 | 1.38 | enough cells to score | inactive
Prr9 (proline rich 9) | – | 1.27 | 1.3 | fewer than 50 cells per well; well left out of scoring | inactive
Tubb2a (tubulin, beta 2A class IIA) | -0.21 | 1.59 | 1.38 | enough cells to score | inactive
Slc72a1 | 0.81 | 1.78 | 1.65 | enough cells to score | inactive
Pomk (protein-O-mannose kinase) | -0.89 | 1.44 | 1.36 | enough cells to score | inactive
Pomk (protein-O-mannose kinase) | – | 1.24 | 1.18 | fewer than 50 cells per well; well left out of scoring | inactive
Mrgprb5 (MAS-related GPR, member B5) | 1.07 | 1.83 | 1.86 | enough cells to score | inactive
Itpka (inositol 1,4,5-trisphosphate 3-kinase A) | -1.42 | 1.43 | 1.2 | enough cells to score | inactive
Bhlha15 (basic helix-loop-helix family, member a15) | 0.08 | 1.68 | 1.6 | enough cells to score | inactive
Paqr5 (progestin and adipoQ receptor family member V) | -0.77 | 1.38 | 1.61 | enough cells to score | inactive
Cln6 (ceroid-lipofuscinosis, neuronal 6) | -0.64 | 1.4 | 1.27 | enough cells to score | inactive
Fxyd6 (FXYD domain-containing ion transport regulator 6) | -0.12 | 1.52 | 1.49 | enough cells to score | inactive
Fez1 (fasciculation and elongation protein zeta 1) | -0.16 | 1.37 | 1.41 | enough cells to score | inactive
Ror2 (receptor tyrosine kinase-like orphan receptor 2) | 0.92 | 1.8 | 1.52 | enough cells to score | inactive
Acot11 (acyl-CoA thioesterase 11) | -0.4 | 1.46 | 1.46 | enough cells to score | inactive
Aph1a (aph1 homolog A, gamma secretase subunit) | 1.96 | 1.7 | 1.81 | enough cells to score | inactive
Ccr8 (C-C motif chemokine receptor 8) | – | 1.52 | 1.57 | fewer than 50 cells per well; well left out of scoring | inactive
Spag6l (sperm associated antigen 6-like) | 0.12 | 1.31 | 1.24 | enough cells to score | inactive
Ing2 (inhibitor of growth family, member 2) | 0.15 | 1.49 | 1.4 | enough cells to score | inactive
Ntmt1 (N-terminal Xaa-Pro-Lys N-methyltransferase 1) | -0.62 | 1.33 | 1.38 | enough cells to score | inactive
Mgp (matrix Gla protein) | -0.35 | 1.4 | 1.3 | enough cells to score | inactive
Myo9a (myosin IXa) | – | 0.954 | 1.62 | fewer than 50 cells per well; well left out of scoring | inactive
Defb2 (defensin beta 2) | -0.14 | 1.52 | 1.56 | enough cells to score | inactive
Gsdma2 (gasdermin A2) | – | 1.1 | 1.38 | fewer than 50 cells per well; well left out of scoring | inactive
